Data as given in article PMC5291280.
No constants are given. Whether binding was seen depends on the method and setting. Binding seen in cells or lysates may run through a third protein. Some entries that bind do so weakly or less than the wild type. Where a sequence is shown, tags or fusion partners need not be part of it.

Protein sequences, listed by entry. Tags and fused reporters are not part of them.
UniProt O60573: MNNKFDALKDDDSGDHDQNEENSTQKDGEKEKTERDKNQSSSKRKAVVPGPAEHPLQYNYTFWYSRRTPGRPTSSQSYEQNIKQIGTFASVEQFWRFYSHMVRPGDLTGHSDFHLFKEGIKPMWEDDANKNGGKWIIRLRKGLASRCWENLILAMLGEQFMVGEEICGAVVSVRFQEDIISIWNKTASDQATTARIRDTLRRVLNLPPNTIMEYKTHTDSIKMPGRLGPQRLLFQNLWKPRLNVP
UniProt Q8ND56: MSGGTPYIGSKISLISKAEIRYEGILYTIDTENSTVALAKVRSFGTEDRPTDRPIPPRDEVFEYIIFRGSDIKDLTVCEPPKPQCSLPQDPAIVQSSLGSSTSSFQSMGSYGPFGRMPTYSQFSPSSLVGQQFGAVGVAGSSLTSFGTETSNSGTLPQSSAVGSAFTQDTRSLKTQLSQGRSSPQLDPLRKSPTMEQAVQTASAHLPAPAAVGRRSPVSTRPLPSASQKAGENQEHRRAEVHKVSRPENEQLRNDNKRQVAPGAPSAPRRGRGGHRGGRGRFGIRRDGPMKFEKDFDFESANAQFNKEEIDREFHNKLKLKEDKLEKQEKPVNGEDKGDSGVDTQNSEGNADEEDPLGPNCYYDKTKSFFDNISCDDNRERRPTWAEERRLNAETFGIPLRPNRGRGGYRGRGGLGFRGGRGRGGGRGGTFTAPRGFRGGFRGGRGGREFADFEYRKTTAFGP
UniProt P06730: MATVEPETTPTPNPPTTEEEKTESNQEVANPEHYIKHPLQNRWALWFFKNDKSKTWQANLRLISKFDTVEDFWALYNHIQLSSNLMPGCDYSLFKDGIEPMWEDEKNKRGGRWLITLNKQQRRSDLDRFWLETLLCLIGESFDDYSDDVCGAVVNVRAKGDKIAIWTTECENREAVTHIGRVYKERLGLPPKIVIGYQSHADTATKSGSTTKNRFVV

T1: FLAG-4E-TΔI (human) (UniProt Q9NRA8)
T1 sequence: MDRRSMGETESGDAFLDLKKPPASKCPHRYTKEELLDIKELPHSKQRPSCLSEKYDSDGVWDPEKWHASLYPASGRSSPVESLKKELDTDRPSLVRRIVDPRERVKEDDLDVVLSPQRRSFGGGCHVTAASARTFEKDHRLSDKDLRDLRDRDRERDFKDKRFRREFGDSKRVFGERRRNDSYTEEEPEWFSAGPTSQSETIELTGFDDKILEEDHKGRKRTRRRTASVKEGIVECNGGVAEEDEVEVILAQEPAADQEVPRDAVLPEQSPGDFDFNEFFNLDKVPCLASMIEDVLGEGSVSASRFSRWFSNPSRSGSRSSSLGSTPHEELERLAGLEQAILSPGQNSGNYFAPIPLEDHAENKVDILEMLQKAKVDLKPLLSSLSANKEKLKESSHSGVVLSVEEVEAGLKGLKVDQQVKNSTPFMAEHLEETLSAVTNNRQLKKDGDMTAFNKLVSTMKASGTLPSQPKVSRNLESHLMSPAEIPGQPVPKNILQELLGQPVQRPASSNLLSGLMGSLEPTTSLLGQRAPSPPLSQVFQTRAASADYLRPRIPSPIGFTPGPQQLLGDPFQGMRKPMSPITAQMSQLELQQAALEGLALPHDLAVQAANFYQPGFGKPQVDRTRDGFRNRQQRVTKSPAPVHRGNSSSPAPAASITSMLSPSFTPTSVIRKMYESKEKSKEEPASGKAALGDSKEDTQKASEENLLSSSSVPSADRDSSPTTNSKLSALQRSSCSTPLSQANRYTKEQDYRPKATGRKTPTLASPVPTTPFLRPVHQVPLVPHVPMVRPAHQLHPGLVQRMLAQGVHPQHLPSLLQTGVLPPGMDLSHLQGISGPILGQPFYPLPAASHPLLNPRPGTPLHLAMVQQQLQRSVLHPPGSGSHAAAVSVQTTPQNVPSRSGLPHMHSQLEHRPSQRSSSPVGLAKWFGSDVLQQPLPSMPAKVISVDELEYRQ

T2: FLAG-4E-TΔIII (human) (UniProt Q9NRA8)
T2 sequence: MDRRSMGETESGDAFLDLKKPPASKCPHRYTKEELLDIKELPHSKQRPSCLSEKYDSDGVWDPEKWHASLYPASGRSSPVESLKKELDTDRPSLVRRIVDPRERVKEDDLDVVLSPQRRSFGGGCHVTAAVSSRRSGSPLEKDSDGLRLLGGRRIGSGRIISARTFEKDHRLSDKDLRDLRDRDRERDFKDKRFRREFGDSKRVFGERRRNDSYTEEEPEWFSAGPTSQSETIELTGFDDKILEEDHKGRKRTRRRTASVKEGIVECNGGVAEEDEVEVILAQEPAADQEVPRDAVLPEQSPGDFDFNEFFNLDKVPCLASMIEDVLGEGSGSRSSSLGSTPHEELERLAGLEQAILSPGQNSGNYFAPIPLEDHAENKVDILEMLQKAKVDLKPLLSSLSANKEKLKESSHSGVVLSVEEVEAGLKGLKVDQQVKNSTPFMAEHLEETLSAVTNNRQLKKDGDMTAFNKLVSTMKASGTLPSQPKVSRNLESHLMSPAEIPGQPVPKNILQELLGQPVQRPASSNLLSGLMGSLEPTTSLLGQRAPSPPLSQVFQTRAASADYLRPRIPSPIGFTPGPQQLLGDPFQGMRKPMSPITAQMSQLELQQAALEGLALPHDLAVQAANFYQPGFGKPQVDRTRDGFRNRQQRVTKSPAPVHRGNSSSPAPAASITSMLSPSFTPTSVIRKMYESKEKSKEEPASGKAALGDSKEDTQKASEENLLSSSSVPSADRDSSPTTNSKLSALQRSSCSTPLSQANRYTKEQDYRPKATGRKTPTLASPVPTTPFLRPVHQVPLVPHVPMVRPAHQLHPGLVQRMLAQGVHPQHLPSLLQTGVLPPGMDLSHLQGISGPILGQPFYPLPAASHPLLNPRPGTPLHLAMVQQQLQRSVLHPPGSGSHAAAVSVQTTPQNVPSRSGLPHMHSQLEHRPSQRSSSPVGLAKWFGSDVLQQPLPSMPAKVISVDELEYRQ

T3: FLAG-4E-TΔCHDΔC (human) (UniProt Q9NRA8)
T3 sequence: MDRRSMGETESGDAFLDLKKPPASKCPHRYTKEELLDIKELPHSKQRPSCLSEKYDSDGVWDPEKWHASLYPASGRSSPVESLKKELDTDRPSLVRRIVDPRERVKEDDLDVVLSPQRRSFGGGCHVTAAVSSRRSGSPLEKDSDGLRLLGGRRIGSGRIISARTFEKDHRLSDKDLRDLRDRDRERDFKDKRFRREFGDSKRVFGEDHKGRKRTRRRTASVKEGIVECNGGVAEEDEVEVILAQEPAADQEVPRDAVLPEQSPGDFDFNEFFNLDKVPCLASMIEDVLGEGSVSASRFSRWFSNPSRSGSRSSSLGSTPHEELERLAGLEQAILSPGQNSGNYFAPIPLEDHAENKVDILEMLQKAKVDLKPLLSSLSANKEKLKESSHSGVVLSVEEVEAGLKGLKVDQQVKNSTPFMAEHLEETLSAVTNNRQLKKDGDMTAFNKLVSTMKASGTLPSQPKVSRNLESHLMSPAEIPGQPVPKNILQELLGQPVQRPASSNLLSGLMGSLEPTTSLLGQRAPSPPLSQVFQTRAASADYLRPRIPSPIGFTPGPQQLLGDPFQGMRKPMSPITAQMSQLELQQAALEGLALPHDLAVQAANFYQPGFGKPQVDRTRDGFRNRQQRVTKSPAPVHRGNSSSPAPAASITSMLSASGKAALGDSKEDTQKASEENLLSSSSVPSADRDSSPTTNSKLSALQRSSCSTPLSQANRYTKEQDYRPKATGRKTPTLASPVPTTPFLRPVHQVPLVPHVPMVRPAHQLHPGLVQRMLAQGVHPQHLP

B1: PAT1B, endogenous (protein, UniProt Q86TB9 1-770)
chain: MFRYESLEDCPLDEDEDAFQGLGEEDEEIDQFNDDTFGSGAVDDDWQEAHERLAELEEKLPVAVNEQTGNGERDEMDLLGDHEENLAERLSKMVIENELEDPAIMRAVQTRPVLQPQPGSLNSSIWDGSEVLRRIRGPLLAQEMPTVSVLEYALPQRPPQGPEDDRDLSERALPRRSTSPIIGSPPVRAVPIGTPPKQMAVPSFTQQILCPKPVHVRPPMPPRYPAPYGERMSPNQLCSVPNSSLLGHPFPPSVPPVLSPLQRAQLLGGAQLQPGRMSPSQFARVPGFVGSPLAAMNPKLLQGRVGQMLPPAPGFRAFFSAPPSATPPPQQHPPGPGPHLQNLRSQAPMFRPDTTHLHPQHRRLLHQRQQQNRSQHRNLNGAGDRGSHRSSHQDHLRKDPYANLMLQREKDWVSKIQMMQLQSTDPYLDDFYYQNYFEKLEKLSAAEEIQGDGPKKERTKLITPQVAKLEHAYKPVQFEGSLGKLTVSSVNNPRKMIDAVVTSRSEDDETKEKQVRDKRRKTLVIIEKTYSLLLDVEDYERRYLLSLEEERPALMDDRKHKICSMYDNLRGKLPGQERPSDDHFVQIMCIRKGKRMVARILPFLSTEQAADILMTTARNLPFLIKKDAQDEVLPCLLSPFSLLLYHLPSVSITSLLRQLMNLPQSAATPALSNPHLTAVLQNKFGLSLLLILLSRGEDLQSSDPATESTQNNQWTEVMFMATRELLRIPQAALAKPISIPTNLVSLFSRYVDRQKLNLLETKLQLVQGIR
B2: CNOT4, endogenous (protein, UniProt O95628 1-575)
chain: MSRSPDAKEDPVECPLCMEPLEIDDINFFPCTCGYQICRFCWHRIRTDENGLCPACRKPYPEDPAVYKPLSQEELQRIKNEKKQKQNERKQKISENRKHLASVRVVQKNLVFVVGLSQRLADPEVLKRPEYFGKFGKIHKVVINNSTSYAGSQGPSASAYVTYIRSEDALRAIQCVNNVVVDGRTLKASLGTTKYCSYFLKNMQCPKPDCMYLHELGDEAASFTKEEMQAGKHQEYEQKLLQELYKLNPNFLQLSTGSVDKNKNKVTPLQRYDTPIDKPSDSLSIGNGDNSQQISNSDTPSPPPGLSKSNPVIPISSSNHSARSPFEGAVTESQSLFSDNFRHPNPIPSGLPPFPSSPQTSSDWPTAPEPQSLFTSETIPVSSSTDWQAAFGFGSSKQPEDDLGFDPFDVTRKALADLIEKELSVQDQPSLSPTSLQNSSSHTTTAKGPGSGFLHPAAATNANSLNSTFSVLPQRFPQFQQHRAVYNSFSFPGQAARYPWMAFPRNSIMHLNHTANPTSNSNFLDLNLPPQHNTGLGGIPVAGEEEVKVSTMPLSTSSHSLQQGQQPTSLHTTVA

Tests used:
Experiment in all cases: co-IP; anti-FLAG M2 beads on lysates of transfected HEK293T cells, eluted with SDS loading buffer, western blot; lysates with or without RNase A (40 μg/ml); in some panels cells also given siRNA against β-globin, DDX6, UNR or unrip, or co-transfected with HA-DDX6
[1] = target: T1, FLAG-4E-TΔI (human)
[2] = target: T2, FLAG-4E-TΔIII (human)
[3] = target: T3, FLAG-4E-TΔCHDΔC (human)

Molecule | binding [1] | binding [2] | binding [3]
eIF4E2, endogenous (from UniProt O60573 1-245) | binds | binds | –
LSM14A, endogenous (from UniProt Q8ND56 1-463) | binds | binds | binds
eIF4E1, endogenous (from UniProt P06730 1-217) | binds | binds | binds
B1 | binds | binds | binds
B2 | binds | binds | –
